Laboratory results as given in patent US7732416B2, “Avermectins substituted in the 4″-position having pesticidal properties” (Merial Limited, priority 2001, dated 2010).
Some results were stated once for a whole list of compounds, not compound by compound.

Tests used:
Format in all cases: in vivo
[1] = test system: Spodoptera littoralis; assay: Example B1 Activity against Spodoptera littoralis (sprayed soya bean plants); details: 12.5 ppm spray liquor, first-stage caterpillars, 3 days
[2] = test system: Frankliniella occidentalis; assay: Example B5 Activity against Frankliniella occidentalis (bean leaf discs); details: bean leaf discs sprayed with test solution, mixed population, 10 days
[3] = test system: Spodoptera littoralis; assay: Example B2 Activity against Spodoptera littoralis, systemic (maize seedlings); details: maize seedlings 6 days in test solution, L1 larvae on cut leaves, 4 days
[4] = test system: Plutella xylostella; assay: Example B4 Activity against Plutella xylostella caterpillars (sprayed cabbage plants); details: 12.5 ppm spray liquor, first-stage caterpillars, 3 days
[5] = test system: Tetranychus urticae; assay: Example B7 Activity against Tetranychus urticae (sprayed bean plants); details: 12.5 ppm spray liquor, mixed population, 25° C., 6 days
[6] = test system: Heliothis virescens; assay: Example B3 Activity against Heliothis virescens (eggs on filter paper); details: 0.8 ml test solution on 0- to 24-hour-old eggs, evaluation after 6 days
[7] = test system: Diabrotica balteata; assay: Example B6 Activity against Diabrotica balteata (sprayed maize seedlings); details: 12.5 ppm spray liquor, second-stage larvae, 6 days

Measured: reduction in the pest population

CCC(C)[C@H]1O[C@]2(C=C[C@@H]1C)C[C@@H]1C[C@@H](C/C=C(\C)[C@@H](O[C@H]3C[C@H](OC)[C@@H](O[C@H]4C[C@H](OC)[C@H](N5CCC5)[C@H](C)O4)[C@H](C)O3)C(C)/C=C/C=C3\CO[C@@H]4[C@H](O)C(C)=C[C@@H](C(=O)O1)[C@]34O)O2 (some centres unmarked) [3.003]
more than 80%: [1] | [2] | [3] | [4] | [5] | [6]

C=C(C)CN(C)[C@@H]1[C@H](C)O[C@@H](O[C@H]2[C@H](C)O[C@@H](O[C@@H]3/C(C)=C/C[C@@H]4C[C@@H](C[C@]5(C=C[C@H](C)[C@@H](C(C)CC)O5)O4)OC(=O)[C@@H]4C=C(C)[C@@H](O)[C@H]5OC/C(=C\C=C\C3C)[C@]54O)C[C@@H]2OC)C[C@@H]1OC (some centres unmarked) [2.015]
more than 80%: [1] | [7] | [2] | [3] | [4] | [5] | [6]

CCC(C)[C@H]1O[C@]2(C=C[C@@H]1C)C[C@@H]1C[C@@H](C/C=C(\C)[C@@H](O[C@H]3C[C@H](OC)[C@@H](O[C@H]4C[C@H](OC)[C@H](N(CC)Cc5ccc(/C=C/c6ccccc6)cc5)[C@H](C)O4)[C@H](C)O3)C(C)/C=C/C=C3\CO[C@@H]4[C@H](O)C(C)=C[C@@H](C(=O)O1)[C@]34O)O2 (some centres unmarked) [3.006]
more than 80%: [1] | [7] | [2] | [3] | [4] | [5] | [6]

CCC(C)[C@H]1O[C@]2(C=C[C@@H]1C)C[C@@H]1C[C@@H](C/C=C(\C)[C@@H](O[C@H]3C[C@H](OC)[C@@H](O[C@H]4C[C@H](OC)[C@H](N(C)Cc5ccc(F)cc5C(F)(F)F)[C@H](C)O4)[C@H](C)O3)C(C)/C=C/C=C3\CO[C@@H]4[C@H](O)C(C)=C[C@@H](C(=O)O1)[C@]34O)O2 (some centres unmarked) [2.009]
more than 80%: [1] | [7] | [2] | [3] | [4] | [5] | [6]

CCCC(C)NC1C(C)OC(OC2C(C)OC(OC3C(C)=CCC4CC(CC5(C=CC(C)C(C(C)CC)O5)O4)OC(=O)C4C=C(C)C(O)C5OCC(=CC=CC3C)C45O)CC2OC)CC1OC (mixture of isomers) [1.037]
more than 80%: [1] | [7] | [2] | [3] | [4] | [5] | [6]

CCC(C)[C@H]1O[C@]2(C=C[C@@H]1C)C[C@@H]1C[C@@H](C/C=C(\C)[C@@H](O[C@H]3C[C@H](OC)[C@@H](O[C@H]4C[C@H](OC)[C@H](N(C)CC(=O)O)[C@H](C)O4)[C@H](C)O3)C(C)/C=C/C=C3\CO[C@@H]4[C@H](O)C(C)=C[C@@H](C(=O)O1)[C@]34O)O2 (some centres unmarked) [2.016]
more than 80%: [1] | [7] | [2] | [3] | [5] | [6]

CCC(C)C1OC2(C=CC1C)CC1CC(CC=C(C)C(OC3CC(OC)C(OC4CC(OC)C(N(C)Cc5cc(Cl)ccc5Cl)C(C)O4)C(C)O3)C(C)C=CC=C3COC4C(O)C(C)=CC(C(=O)O1)C34O)O2 (centres unmarked) [2.042]
more than 80%: [1] | [2] | [3] | [4] | [5] | [6]

C=C(Cl)CNC1C(C)OC(OC2C(C)OC(OC3C(C)=CCC4CC(CC5(C=CC(C)C(C(C)CC)O5)O4)OC(=O)C4C=C(C)C(O)C5OCC(=CC=CC3C)C45O)CC2OC)CC1OC (centres unmarked) [1.065]
more than 80%: [1] | [7] | [2] | [3] | [5]

CCC(C)C1OC2(C=CC1C)CC1CC(CC=C(C)C(OC3CC(OC)C(OC4CC(OC)C(N(C)Cc5cccc(Br)c5)C(C)O4)C(C)O3)C(C)C=CC=C3COC4C(O)C(C)=CC(C(=O)O1)C34O)O2 (centres unmarked) [2.050]
more than 80%: [1] | [7] | [2] | [3] | [6]

CCC(C)C1OC2(C=CC1C)CC1CC(CC=C(C)C(OC3CC(OC)C(OC4CC(OC)C(NCC=CC#CC(C)(C)C)C(C)O4)C(C)O3)C(C)C=CC=C3COC4C(O)C(C)=CC(C(=O)O1)C34O)O2 (centres unmarked) [1.050]
more than 80%: [1] | [2] | [3] | [4] | [5]

CCC(C)C1OC2(C=CC1C)CC1CC(CC=C(C)C(OC3CC(OC)C(OC4CC(OC)C(N(C)Cc5ccccc5I)C(C)O4)C(C)O3)C(C)C=CC=C3COC4C(O)C(C)=CC(C(=O)O1)C34O)O2 (centres unmarked) [2.055]
more than 80%: [1] | [2] | [3] | [5] | [6]

CCC(C)C1OC2(C=CC1C)CC1CC(CC=C(C)C(OC3CC(OC)C(OC4CC(OC)C(N(C)Cc5ccc(C(C)(C)C)cc5)C(C)O4)C(C)O3)C(C)C=CC=C3COC4C(O)C(C)=CC(C(=O)O1)C34O)O2 (centres unmarked) [2.029]
more than 80%: [1] | [2] | [3] | [4] | [5] | [6]

CCC(C)C1OC2(C=CC1C)CC1CC(CC=C(C)C(OC3CC(OC)C(OC4CC(OC)C(NCC(N)=O)C(C)O4)C(C)O3)C(C)C=CC=C3COC4C(O)C(C)=CC(C(=O)O1)C34O)O2 (centres unmarked) [1.061]
more than 80%: [1] | [2] | [3] | [4] | [5]

CCOC(=O)/C=C(/CN(C)[C@@H]1[C@H](C)O[C@@H](O[C@H]2[C@H](C)O[C@@H](O[C@@H]3/C(C)=C/C[C@@H]4C[C@@H](C[C@]5(C=C[C@H](C)[C@@H](C(C)CC)O5)O4)OC(=O)[C@@H]4C=C(C)[C@@H](O)[C@H]5OC/C(=C\C=C\C3C)[C@]54O)C[C@@H]2OC)C[C@@H]1OC)OCC (some centres unmarked) [2.070]
more than 80%: [1] | [2] | [3] | [4] | [5] | [6]

CCC(C)C1OC2(C=CC1C)CC1CC(CC=C(C)C(OC3CC(OC)C(OC4CC(OC)C(N(C)Cc5cc(F)cc(F)c5)C(C)O4)C(C)O3)C(C)C=CC=C3COC4C(O)C(C)=CC(C(=O)O1)C34O)O2 (centres unmarked) [2.049]
more than 80%: [1] | [2] | [3] | [5] | [6]

CCC(C)C1OC2(C=CC1C)CC1CC(CC=C(C)C(OC3CC(OC)C(OC4CC(OC)C(N(C)Cc5cc(F)c(F)cc5F)C(C)O4)C(C)O3)C(C)C=CC=C3COC4C(O)C(C)=CC(C(=O)O1)C34O)O2 (centres unmarked) [2.036]
more than 80%: [1] | [2] | [3] | [5] | [6]

CCC(C)C1OC2(C=CC1C)CC1CC(CC=C(C)C(OC3CC(OC)C(OC4CC(OC)C(N(C)Cc5ccccc5Cl)C(C)O4)C(C)O3)C(C)C=CC=C3COC4C(O)C(C)=CC(C(=O)O1)C34O)O2 (centres unmarked) [2.051]
more than 80%: [1] | [7] | [2] | [3] | [5] | [6]

CCC(C)C1OC2(C=CC1C)CC1CC(CC=C(C)C(OC3CC(OC)C(OC4CC(OC)C(NCc5ccc(Cl)nc5)C(C)O4)C(C)O3)C(C)C=CC=C3COC4C(O)C(C)=CC(C(=O)O1)C34O)O2 (centres unmarked) [1.068]
more than 80%: [1] | [7] | [2] | [3] | [5]
